Reference: patent US7317001B2, “Use of ramoplanin to treat diseases associated with the use of antibiotics” (priority 2002, dated 2008)
Some of these results come from one statement about several compounds together.

System: C. difficile strain 4013
Assay: Hamster CDAD induced by oral C. difficile challenge plus clindamycin
Format: in vivo, Syrian hamsters
Settings: oral for five days; ramoplanin or vancomycin 25-50-100 mg/kg, metronidazole 100-200-400 mg/kg
Method: In a second study, animals were challenged orally with a bacterial suspension of C. difficile and then administered a single s.c. injection of 100 mg/kg clindamycin. Oral treatment with ramoplanin or vancomycin at 25-50-100 mg/kg or metronidazole at 100-200-400 mg/kg started 24 hours after clindamycin administration and lasted for five days. Hamsters were weighed and observed every 24 hours for evidence of diarrhea or moribund conditions, and the cecal contents were analyzed for C. difficile toxin A (ELISA).

| Compound | prolonged survival |
| --- | --- |
| CN[C@H](CC(C)C)C(=O)N[C@H]1C(=O)N[C@@H](CC(N)=O)C(=O)N[C@H]2C(=O)N[C@H]3C(=O)N[C@H](C(=O)N[C@H](C(=O)O)c4cc(O)cc(O)c4-c4cc3ccc4O)[C@H](O)c3ccc(c(Cl)c3)Oc3cc2cc(c3O[C@@H]2O[C@H](CO)[C@@H](O)[C@H](O)[C@H]2O[C@H]2C[C@](C)(N)[C@H](O)[C@H](C)O2)Oc2ccc(cc2Cl)[C@H]1O [vancomycin, reference compound] | 13 to 17 days |
| ramoplanin | 13 to 17 days |
